Reference: PubChem BioAssay AID1224826 (NIAID, 2016)
The deposit covers about 17,000 reagents; below is a part drawn at random. About 1,110 of them (6.6%) count as active. 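Active means lowered or raised reporter signal; replicate intensities are raw and not normalised per plate.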 Further read-outs or replicates are left out here.

Test: 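Genes that change LPS-induced Tnf promoter activity in mouse macrophages when knocked down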 (primary screen)
Cells: RAW264.7 G9 macrophages from mouse bearing reporters for p65 (GFP) and the Tnf promoter (mCherry)
Reagent: siRNA pool against mouse genes, 100 nM
Time to read-out: 16 h of LPS stimulation, after 2 days of siRNA transfection
Treatment: bacterial lipopolysaccharide (Salmonella minnesota R595), 10 ng/ml
Read-out: 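Nuclear mCherry signal of the Tnf promoter reporter measured by imaging after background removal, scaled to each plate median and turned into robust z-scores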
Reading the numbers: Tnf reporter robust z-score: higher = stronger Tnf promoter reporter signal after LPS
Rule for the call: 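Called active when robust z-score is at most -1.3, matching the median of the Tlr4 knock-down control, or over 3; control wells and wells with under 50 cells never active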
Calls: active = Tnf reporter clearly lowered or raised; inactive = no clear change in Tnf reporter

gene | Tnf reporter robust z-score | fewer than 50 cells in well | Outcome
Sumf1 | -0.25 | enough cells in well | inactive
Dnajc27 | -0.87 | enough cells in well | inactive
Rims1 | 1.53 | enough cells in well | inactive
Etfdh | 0.13 | enough cells in well | inactive
Flad1 | 1.53 | enough cells in well | inactive
Cul3 | -0.89 | enough cells in well | inactive
Cysltr2 | 0.85 | enough cells in well | inactive
Kcnj4 | 2.11 | enough cells in well | inactive
Klra23 | -0.19 | enough cells in well | inactive
Mmp14 | 0.8 | enough cells in well | inactive
Ace | – | fewer than 50 cells per well; well left out of calls | inactive
Olfr257 | 0.15 | enough cells in well | inactive
Caml | -0.74 | enough cells in well | inactive
2310057M21Rik | – | fewer than 50 cells per well; well left out of calls | inactive
Rubcnl | -0.1 | enough cells in well | inactive

Part of the list above in another layout.
{"gene":"Cysltr2","Tnf reporter robust z-score":0.85,"fewer than 50 cells in well":"enough cells in well","Outcome":"inactive"}
{"gene":"Kcnj4","Tnf reporter robust z-score":2.11,"fewer than 50 cells in well":"enough cells in well","Outcome":"inactive"}
{"gene":"Klra23","Tnf reporter robust z-score":-0.19,"fewer than 50 cells in well":"enough cells in well","Outcome":"inactive"}

The results go on.
gene | Tnf reporter robust z-score | fewer than 50 cells in well | Outcome
Or7g34 | 1.73 | enough cells in well | inactive
Fam241b | – | fewer than 50 cells per well; well left out of calls | inactive
Cd69 | -0.64 | enough cells in well | inactive
Tmem47 | -0.2 | enough cells in well | inactive
Drd4 | -0.04 | enough cells in well | inactive
Spata33 | 0.71 | enough cells in well | inactive
4933405O20Rik | -0.38 | enough cells in well | inactive
Gpc1 | – | fewer than 50 cells per well; well left out of calls | inactive
Cxcl16 | -0.57 | enough cells in well | inactive
Tgfb3 | 0.47 | enough cells in well | inactive
Plvap | – | fewer than 50 cells per well; well left out of calls | inactive
Lrrc28 | -1.23 | enough cells in well | inactive
Eif4enif1 | 0.68 | enough cells in well | inactive
Shh | 0.68 | enough cells in well | inactive
Rassf5 | 0.09 | enough cells in well | inactive
Or5m3 | 2.24 | enough cells in well | inactive
Cox14 | – | fewer than 50 cells per well; well left out of calls | inactive
Acads | 0.35 | enough cells in well | inactive
Ift22 | 0.94 | enough cells in well | inactive
Grem2 | -0.23 | enough cells in well | inactive
Rmdn2 | -1.22 | enough cells in well | inactive
Lin54 | 0.52 | enough cells in well | inactive
Ap1g1 | -1.47 | enough cells in well | active
Bok | 2.83 | enough cells in well | inactive
D130012P04Rik | 0.17 | enough cells in well | inactive
